PubChem BioAssay AID1053208 – Peter MacCallum Cancer Centre – 2014
Test: 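Synthetic lethal interactions between gene loss and doxorubicin in osteosarcoma cells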 (primary screen). System: mouse osteosarcoma cells, early-passage culture from an engineered mouse model of fibroblastic bone tumour. Knock-down reagent: siRNA pool against mouse genes, 40 nM. Timing: about 120 h (48 h before drug, then 72 h with drug). Treatment: doxorubicin 100 nM for 72 h, roughly 30-40% inhibitory dose. Measured: 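Luminescent ATP signal taken as viability with or without 100 nM doxorubicin for 72 h; mean of two wells set against non-targeting siRNA and turned into robust z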. Reading the numbers: viability z-score with doxorubicin: higher = more viable cells under doxorubicin; viability z-score without drug: higher = more viable cells with knock-down alone. Hit rule: 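Called active if knock-down leaves viability unchanged without drug (z within -2 to 2) but lowers it with doxorubicin (z at or under -2)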.
Here is one part, drawn at random, of about 17,000 reagents. 788 of them (4.7%) count as active. 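Calls rest on z-score classes alone; an extra cut-off of viability at most 70% of control was not applied to them.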 Further read-outs or replicates are left out here. Reagent sequences are not shown.

Comtd1 scored combined z-score class no change with or without drug; viability z-score with doxorubicin 0.67; viability z-score without drug -0.34; inactive. Col6a1 scored combined z-score class high cell count without drug only; viability z-score with doxorubicin -1.12; viability z-score without drug 2.36; inactive. Nap1l2 showed combined z-score class no change with or without drug; viability z-score with doxorubicin -0.9; viability z-score without drug -0.51; inactive. Bzw1 gave combined z-score class no change with or without drug; viability z-score with doxorubicin -1.12; viability z-score without drug 1.85; inactive. For Smarcd2 the deposit lists combined z-score class no change with or without drug; viability z-score with doxorubicin -0.11; viability z-score without drug -0.17; inactive. For Or2y15 the deposit lists combined z-score class no change with or without drug; viability z-score with doxorubicin -0.9; viability z-score without drug -0.34; inactive.

Vmn1r227 showed combined z-score class no change with or without drug; viability z-score with doxorubicin -0.11; viability z-score without drug -0.51; inactive. With knock-down of Crk, the record shows combined z-score class no change with or without drug; viability z-score with doxorubicin -1.12; viability z-score without drug -0.51; inactive. Tsc22d3 showed combined z-score class no change with or without drug; viability z-score with doxorubicin -0.45; viability z-score without drug 0.67; inactive. For Chchd7 the deposit lists combined z-score class no change with or without drug; viability z-score with doxorubicin -0.67; viability z-score without drug -0.17; inactive. Trp53rka showed combined z-score class no change with or without drug; viability z-score with doxorubicin 0.11; viability z-score without drug -0.84; inactive. Depletion of C1qbp came out at: combined z-score class no change with or without drug; viability z-score with doxorubicin -0.67; viability z-score without drug -0.17; inactive.

Inpp4b scored combined z-score class no change with or without drug; viability z-score with doxorubicin 0.22; viability z-score without drug 0.34; inactive. Depletion of Cdo1 came out at: combined z-score class no change with or without drug; viability z-score with doxorubicin -0.45; viability z-score without drug 0.17; inactive. Against Ero1a, the entry reads combined z-score class no change with or without drug; viability z-score with doxorubicin 0.45; viability z-score without drug 0.34; inactive. For Mier3, the entry reads combined z-score class no change with or without drug; viability z-score with doxorubicin -1.12; viability z-score without drug -0.51; inactive. Silencing of Mmp7 came out at: combined z-score class high cell count without drug only; viability z-score with doxorubicin 0.67; viability z-score without drug 2.02; inactive. After knock-down of Pgpep1 the results were combined z-score class no change with or without drug; viability z-score with doxorubicin 1.24; viability z-score without drug 0.17; inactive.

Silencing of Cacng3 gave: combined z-score class no change with or without drug; viability z-score with doxorubicin 0.34; viability z-score without drug 1.69; inactive. Prkcd showed combined z-score class no change with or without drug; viability z-score with doxorubicin 1.8; viability z-score without drug 1.52; inactive. Depletion of Mcm10 gave: combined z-score class no change with or without drug; viability z-score with doxorubicin -1.35; viability z-score without drug 0.17; inactive. After knock-down of Or7e174 the results were combined z-score class no change with or without drug; viability z-score with doxorubicin 0.45; viability z-score without drug 0.17; inactive. H2-T10 gave combined z-score class no change with or without drug; viability z-score with doxorubicin -0.9; viability z-score without drug 0.17; inactive. With knock-down of Cmtm4, the screen gave combined z-score class no change with or without drug; viability z-score with doxorubicin -0.67; viability z-score without drug -0.84; inactive.

After knock-down of Or51b6b, the record shows combined z-score class no change with or without drug; viability z-score with doxorubicin -0.56; viability z-score without drug -0.51; inactive. Silencing of C2cd2 gave: combined z-score class no change with or without drug; viability z-score with doxorubicin -0.34; viability z-score without drug 1.18; inactive. After knock-down of Cip2a, the record shows combined z-score class no change with or without drug; viability z-score with doxorubicin -1.01; viability z-score without drug -0.17; inactive. After knock-down of Or5p67, the screen gave combined z-score class no change with or without drug; viability z-score with doxorubicin 0.79; viability z-score without drug -0.84; inactive.
